The results in this text go back to patent publication US20220041736A1.

These are yes or no findings as the source states them, for the method shown. Binding can be weak; no strength is given.

This experiment addresses human CD3 (on human CD3 positive T cell lines) (human). In words: FACS, HPB-ALL cells, periplasmic supernatant.

B1: anti-CD3 single domain antibody CD3 3D-H11 (VHH)
VHH: EVQLVESGGGLVQPGGSLRLSCAASGFTFDDYGMSWVRQAPGKWLEWVSDISWNGGSTYYADSVKGRFTISRDNAENTLYLQMNSLKPDDTAVYYCAKMGEGGWGANDYWGQGTQVTVSS
For B1, the binding result is recorded as “binds”.
